According to publication PMC12376620, “A Novel OsMPK6‐OsMADS47‐PPKL1/3 Module Controls Grain Shape and Yield in Rice”:
Read-outs that look alike come from different tables or passages of the source. These are yes or no findings as the source states them, for the method shown. For some of these results: Binding seen in cells or lysates may run through a third protein. Some entries that bind do so weakly or less than the wild type. For some of these results: Tags and fused reporters may be left off the sequences shown.

The chains behind the UniProt entries cited, without tags or fusion partners. Where a name states a change or a piece, a line headed by the entry shows the natural chain unless it says otherwise.
UniProt Q5K4R0: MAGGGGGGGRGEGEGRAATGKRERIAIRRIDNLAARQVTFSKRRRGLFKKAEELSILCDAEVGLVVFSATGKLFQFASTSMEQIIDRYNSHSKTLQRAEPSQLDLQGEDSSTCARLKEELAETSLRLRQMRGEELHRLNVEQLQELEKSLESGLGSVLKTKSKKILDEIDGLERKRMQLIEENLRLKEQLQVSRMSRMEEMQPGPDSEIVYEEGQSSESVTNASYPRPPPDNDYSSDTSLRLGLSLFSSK
UniProt Q84UI5: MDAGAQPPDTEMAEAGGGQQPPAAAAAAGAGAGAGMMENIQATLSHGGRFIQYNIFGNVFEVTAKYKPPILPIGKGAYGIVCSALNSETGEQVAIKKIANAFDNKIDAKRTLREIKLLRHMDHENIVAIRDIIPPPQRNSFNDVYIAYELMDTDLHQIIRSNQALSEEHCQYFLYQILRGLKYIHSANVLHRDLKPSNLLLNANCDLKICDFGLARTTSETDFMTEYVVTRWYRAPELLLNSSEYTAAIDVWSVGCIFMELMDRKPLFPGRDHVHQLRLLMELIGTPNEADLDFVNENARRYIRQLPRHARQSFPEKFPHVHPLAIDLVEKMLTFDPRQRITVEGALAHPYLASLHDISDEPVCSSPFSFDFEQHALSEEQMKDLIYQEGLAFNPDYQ

Key:
[1] = target: OsMADS47-CLUC (rice) (UniProt Q5K4R0); test: split reporter; luciferase complementation imaging; NLUC and CLUC fusions co-infiltrated into 3-week-old N. benthamiana leaves, 2.5 mM luciferin, imaged 72 h after infiltration; for the homodimer also with co-expressed OsMPK6 or OsMKK4^CA and OsMPK6
[2] = target: OsMADS47^S78/80T70/79A (yeast two-hybrid fusion) (rice) (UniProt Q5K4R0); test: two-hybrid; in yeast cells; selection medium not stated (Figures 6A, S9A, S9C, S12, S15)
[3] = target: OsMADS47 (yeast two-hybrid fusion) (rice) (UniProt Q5K4R0); test: as above
[4] = target: GST-OsMPK6 (rice) (UniProt Q84UI5); test: pull-down; semi-in vivo: GST fusion pre-immobilized on GST beads, incubated with total protein extract of 7-day HA-OsMADS47 overexpression shoots in IP lysis buffer (50 mM Tris-HCl pH 7.5, 1% Triton X-100, 150 mM NaCl) at 4 °C for 1.5 h; anti-HA blot; only the target purified
[5] = target: OsMADS47^S78/80T70/79D (yeast two-hybrid fusion) (rice) (UniProt Q5K4R0); test: two-hybrid; in yeast cells; selection medium not stated (Figures 6A, S9A, S9C, S12, S15)
[6] = target: OsMADS47 (yeast two-hybrid fusion) (rice) (UniProt Q5K4R0); test: as above; remark: listed apart in the source

OsMADS47-CLUC (from UniProt Q5K4R0 1-250)
binding [1]: binds

OsMADS47^S78/80T70/79A (yeast two-hybrid fusion) (from UniProt Q5K4R0 1-250)
binding [2]: no binding

OsMPK6 (yeast two-hybrid fusion) (from UniProt Q84UI5 1-398) (enzyme)
binding [3]: binds

OsMPK6-NLUC (from UniProt Q84UI5 1-398) (enzyme)
binding [1]: binds

HA-OsMADS47 (from UniProt Q5K4R0 1-250)
binding [4]: binds

OsMADS47^S78/80T70/79D (yeast two-hybrid fusion) (from UniProt Q5K4R0 1-250)
binding [5]: binds

B1: OsMPK3 (yeast two-hybrid fusion) (enzyme, UniProt Q10N20 1-369)
chain: MDGAPVAEFRPTMTHGGRYLLYDIFGNKFEVTNKYQPPIMPIGRGAYGIVCSVMNFETREMVAIKKIANAFNNDMDAKRTLREIKLLRHLDHENIIGIRDVIPPPIPQAFNDVYIATELMDTDLHHIIRSNQELSEEHCQYFLYQILRGLKYIHSANVIHRDLKPSNLLLNANCDLKICDFGLARPSSESDMMTEYVVTRWYRAPELLLNSTDYSAAIDVWSVGCIFMELINRQPLFPGRDHMHQMRLITEVIGTPTDDELGFIRNEDARKYMRHLPQYPRRTFASMFPRVQPAALDLIERMLTFNPLQRITVEEALDHPYLERLHDIADEPICLEPFSFDFEQKALNEDQMKQLIFNEAIEMNPNIRY
binding [6]: binds
